Source: US20140044644A1
These are yes or no findings as the source states them, for the method shown. For some of these results: In cells and extracts the contact can be indirect. Some binding calls cover weakened binding; strength is not graded here.

Sequences of proteins named here, by UniProt entry; tags and fusion partners are left off. A change or cut given only in a name is not applied to a line headed by its entry. A line that says so, or that is headed by a name, gives the form on record, which may keep a tag or linker. Residues count along the entry.
UniProt P05067: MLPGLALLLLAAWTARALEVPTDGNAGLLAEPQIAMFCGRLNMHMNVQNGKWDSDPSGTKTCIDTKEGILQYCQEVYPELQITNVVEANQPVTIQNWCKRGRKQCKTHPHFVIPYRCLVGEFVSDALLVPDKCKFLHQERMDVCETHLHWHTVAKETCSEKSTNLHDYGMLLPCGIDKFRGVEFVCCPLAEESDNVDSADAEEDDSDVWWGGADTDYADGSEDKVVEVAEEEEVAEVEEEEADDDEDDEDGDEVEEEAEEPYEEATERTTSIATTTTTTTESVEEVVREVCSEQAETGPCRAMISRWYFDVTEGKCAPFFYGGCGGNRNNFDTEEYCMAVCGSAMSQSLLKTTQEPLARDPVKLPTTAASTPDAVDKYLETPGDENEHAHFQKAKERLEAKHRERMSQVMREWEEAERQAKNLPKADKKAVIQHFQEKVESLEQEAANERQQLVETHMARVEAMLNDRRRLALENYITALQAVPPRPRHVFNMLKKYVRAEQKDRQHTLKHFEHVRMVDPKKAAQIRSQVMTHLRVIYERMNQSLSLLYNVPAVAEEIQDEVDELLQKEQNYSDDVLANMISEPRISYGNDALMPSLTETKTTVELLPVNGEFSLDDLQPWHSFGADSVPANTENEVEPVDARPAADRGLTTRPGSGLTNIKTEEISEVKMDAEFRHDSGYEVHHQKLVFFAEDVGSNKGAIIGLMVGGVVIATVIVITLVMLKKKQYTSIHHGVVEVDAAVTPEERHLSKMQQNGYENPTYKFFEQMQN
APP in human brain homogenate: residues 18-770 of P05067
APP CTF-50 peptide (AICD50), synthetic peptide corresponding to the 50-amino acid cytoplasmatic fragment of APP: residues 721-770 of P05067
rat recombinant ankG (ankyrin G) (O70511, form named): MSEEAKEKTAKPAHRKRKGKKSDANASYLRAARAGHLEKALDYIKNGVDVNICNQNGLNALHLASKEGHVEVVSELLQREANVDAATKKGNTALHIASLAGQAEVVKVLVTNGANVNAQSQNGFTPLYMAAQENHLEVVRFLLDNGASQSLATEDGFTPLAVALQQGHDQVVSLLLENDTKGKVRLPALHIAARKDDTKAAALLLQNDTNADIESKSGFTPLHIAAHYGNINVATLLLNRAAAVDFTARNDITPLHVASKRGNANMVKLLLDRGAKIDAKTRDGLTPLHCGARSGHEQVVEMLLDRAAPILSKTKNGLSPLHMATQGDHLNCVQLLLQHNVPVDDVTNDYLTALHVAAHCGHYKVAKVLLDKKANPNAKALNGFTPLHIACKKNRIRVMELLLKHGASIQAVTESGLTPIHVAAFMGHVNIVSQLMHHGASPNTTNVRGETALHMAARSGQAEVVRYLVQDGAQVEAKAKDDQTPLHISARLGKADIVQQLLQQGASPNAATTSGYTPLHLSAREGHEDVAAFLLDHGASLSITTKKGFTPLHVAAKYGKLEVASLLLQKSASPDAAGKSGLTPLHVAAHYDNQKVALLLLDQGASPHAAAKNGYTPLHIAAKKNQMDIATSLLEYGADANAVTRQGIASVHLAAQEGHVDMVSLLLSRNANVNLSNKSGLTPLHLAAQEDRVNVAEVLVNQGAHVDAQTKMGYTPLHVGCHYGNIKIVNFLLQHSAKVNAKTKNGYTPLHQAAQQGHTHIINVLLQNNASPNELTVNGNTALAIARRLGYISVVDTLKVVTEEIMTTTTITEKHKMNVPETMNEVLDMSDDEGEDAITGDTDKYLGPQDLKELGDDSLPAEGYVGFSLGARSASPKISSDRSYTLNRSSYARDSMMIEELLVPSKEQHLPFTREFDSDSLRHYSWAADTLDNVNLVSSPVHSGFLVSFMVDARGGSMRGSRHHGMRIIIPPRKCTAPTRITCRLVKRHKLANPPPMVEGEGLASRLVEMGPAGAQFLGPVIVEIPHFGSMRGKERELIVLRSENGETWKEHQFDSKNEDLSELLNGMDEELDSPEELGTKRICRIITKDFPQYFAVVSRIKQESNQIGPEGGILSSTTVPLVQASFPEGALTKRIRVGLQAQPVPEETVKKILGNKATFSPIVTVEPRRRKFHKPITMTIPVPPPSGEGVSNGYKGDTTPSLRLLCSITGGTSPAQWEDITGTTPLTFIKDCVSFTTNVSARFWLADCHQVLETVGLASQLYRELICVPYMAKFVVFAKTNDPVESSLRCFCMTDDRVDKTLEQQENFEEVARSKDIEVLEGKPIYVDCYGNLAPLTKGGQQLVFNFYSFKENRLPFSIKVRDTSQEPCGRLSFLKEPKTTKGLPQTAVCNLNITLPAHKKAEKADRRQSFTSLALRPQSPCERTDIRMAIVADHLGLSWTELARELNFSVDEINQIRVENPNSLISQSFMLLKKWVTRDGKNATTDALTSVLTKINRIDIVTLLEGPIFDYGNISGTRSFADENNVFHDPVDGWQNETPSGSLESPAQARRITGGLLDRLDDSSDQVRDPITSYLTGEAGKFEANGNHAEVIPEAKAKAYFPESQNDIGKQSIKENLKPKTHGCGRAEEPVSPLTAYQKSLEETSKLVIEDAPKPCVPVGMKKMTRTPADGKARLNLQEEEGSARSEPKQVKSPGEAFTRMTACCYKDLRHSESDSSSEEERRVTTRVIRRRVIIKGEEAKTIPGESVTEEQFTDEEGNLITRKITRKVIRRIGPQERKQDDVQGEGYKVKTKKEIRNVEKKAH

Key:
[1] = target: APP CTF-50 peptide (AICD50), synthetic peptide corresponding to the 50-amino acid cytoplasmatic fragment of APP (UniProt P05067); experiment: ELISA, AICD50 peptide coated, ankG in solution (FIG. 6d)
[2] = target: APP CTF-50 peptide (AICD50), synthetic peptide corresponding to the 50-amino acid cytoplasmatic fragment of APP (UniProt P05067); experiment: ELISA, AICD50 peptide coated, recombinant ankG in solution
[3] = target: APP in human brain homogenate (human) (UniProt P05067); experiment: co-immunoprecipitation from human brain homogenate, Western blot
[4] = target: APP in human brain homogenate (human) (UniProt P05067); experiment: co-immunoprecipitation from human frontal cortex (FIG. 6a) and AD hippocampus (FIG. 6e), Western blot

Q: How did the binding [1] turn out when “rat recombinant ankG (ankyrin G) (from UniProt O70511 1-1806)” was run?
A: binds

Q: What about the binding [2] of the same substance?
A: binds

Q: What does the source list for “ankG in human brain homogenate (from UniProt Q12955 1-4377)”?
A: binding [3]: binds; binding [4]: binds
